Taken from: PubChem BioAssay AID652272 (Drosophila RNAi Screening Center, 2013)
Aim: 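Genome-wide knock-down search for components of Hedgehog signalling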 (primary screen). System: Drosophila clone 8 (Cl8) cells. Reagents: long dsRNA against Drosophila genes. Measurement: 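Firefly light from a Hedgehog-responsive ptc promoter reporter and Renilla reference light, both read on a plate reader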. Direction: firefly Hh reporter signal: higher = more ptc reporter light; Renilla reference signal: higher = more Renilla control light. Call rule: 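Hit when the z-score averaged over two replicates is under -2 or over +3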. Meaning of the calls: active = hit: reporter lowered or raised; inactive = not a hit.
In all, the deposit lists about 21,000 reagents; this is a random part of those with a known target gene and a result. In the full data, 503 (2.4%) are marked active. 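Raw plate light values, not normalised; calls rest on replicate z-scores that were not deposited; hits include reporter decreases as well as increases.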 Unmarked entries are inactive. Names joined by + are all predicted targets of the reagent. Not stated in the record: the amount of reagent, the time to read-out.

target,amplicon,"firefly Hh reporter signal, replicate 1","firefly Hh reporter signal, replicate 2","firefly Hh reporter signal, replicate 3","Renilla reference signal, replicate 1","Renilla reference signal, replicate 2"
Vps36 (GeneID 39523),DRSC09785,30017,42967,34336,5752,3248
Pros28.2 (retired record) (GeneID 5657117),DRSC16800,5.10e5,94434,,32477,7194
CG14853 (GeneID 41771),DRSC14977,1.31e5,7.90e5,1.46e5,4165,5815
ERp44 (GeneID 32588),DRSC20215,88134,96841,,1056,1665
CG12375 (GeneID 34106),DRSC02163,65441,60706,,2785,2504
trh (GeneID 38065),DRSC08355,1.07e5,49456,,3456,3843
trh (GeneID 38065),DRSC08739,68466,41475,,2221,3040
Lrr47 (GeneID 34449),DRSC03365,55512,1.22e5,,2416,3921
CG3982 (GeneID 39084),DRSC10394,43497,13783,20800,1731,1349
CG13113 (GeneID 34271),DRSC02211,1.05e5,65085,,2768,5289
CG8191 + CG12379,DRSC19451,92057,1.77e5,,2345,6801
Hsp70Aa + Hsp70Bb + Hsp70Ba + 3 more,DRSC15380,84973,75622,,4284,2452
CG31091 (GeneID 318591),DRSC15933,4.64e5,95728,,22854,2418
CG17328 (GeneID 34962),DRSC01927,1.17e5,7.84e5,93924,2880,43552
Mvk + CG33672 + spt4,DRSC05356,1.37e5,2.36e5,,4074,9384
Mvk + CG33672 + spt4,DRSC06628,71417,43325,,3114,1773
CG14397 (GeneID 8674022),DRSC02381,1.01e5,58144,,2556,4996
gd (GeneID 32159),DRSC20336,66641,2.86e5,,1830,9885
Ank (GeneID 43770),DRSC17127,78003,47497,,1811,1544
Erasp (GeneID 246448),DRSC07111,97693,87493,,4032,3648
CG10508 (GeneID 40342),DRSC11612,1.44e5,1.12e5,,5729,4690
CG10508 (GeneID 40342),DRSC11613,91509,1.73e5,,2336,5074
rad (retired record) (GeneID 32251),DRSC18966,4.40e5,1.28e5,,19737,2611
rad (retired record) (GeneID 32251),DRSC19687,1.01e5,6.17e5,3.48e5,2941,3734
rad (retired record) (GeneID 32251),DRSC19816,42636,1.31e5,,1138,3762
bgm (GeneID 44117),DRSC03495,37968 (active),36002,,2956,2881
Arp2 (GeneID 32623),DRSC19332,74058,1.79e5,,2890,6515
CG5435 (GeneID 34657),DRSC02860,1.21e5,53353,,2811,4812
Ntl (GeneID 34046),DRSC03003,6.70e5,1.28e5,,4992,4992
Vhl (GeneID 53433),DRSC07716,58263,31895,,1705,2688
Brd8 (GeneID 43460),DRSC14866,88288,1.09e5,,2123,3533
CG32106 (GeneID 317855),DRSC09219,2.50e5,,,5126,
CG13204 (GeneID 36227),DRSC06328,69525,43224,,1608,2953
Exo84 (GeneID 43163),DRSC15965,4.49e5,77061,,23682,2640
CG42397 (GeneID 8673976),DRSC09147,1.30e5,2.69e5,,5639,9035
Hsp60A (GeneID 32045),DRSC20254,1.24e5,81812,,2913,2282
nmd (GeneID 44021),DRSC02856,60416,31024,,2968,1632
CG15435 (GeneID 33655),DRSC00450,83393,39988,,2452,4509
PGRP-LB (GeneID 41379),DRSC14926,1.62e5,1.18e5,,5932,4259
CG14882 (GeneID 41994),DRSC15006,1.08e5,78089,,4496,2925
CG4622 (GeneID 37919),DRSC04479,74720,24905,,3196,1020
CG11777 (GeneID 36108),DRSC06081,1.22e5,60867,,2857,5478
CG8204 (GeneID 36728),DRSC07106,1.25e5,45188,,3216,2203
CG7706 (GeneID 42244),DRSC16295,72704,81308,,3249,2896
rtp (GeneID 40627),DRSC12132,1.30e5,1.33e5,,5333,5494
CG6724 (GeneID 34488),DRSC02983,87024,51117,,3143,6712
CG13062 (GeneID 39799),DRSC09945,1.26e5,,,1656,3781
CG8159 (GeneID 41040),DRSC16392,74867,1.05e5,,2760,5469
CG9451 (GeneID 40118),DRSC11074,97821,86506,,3682,2221
AkhR (GeneID 33942),DRSC03329,71608,49616,,3053,2176
ppk6 (GeneID 37286),DRSC06062,68672,30410,,2096,2672
Nup50 (GeneID 35784),DRSC06827,74646,47618,,3306,2214
CG31819 (GeneID 260658),DRSC01532,1.04e5,1.71e5,,2912,8481
Npc2d (GeneID 41232),DRSC14551,91041,1.00e5,,3204,2923
par-6 (GeneID 32752),DRSC20359,1.12e5,99564,,2568,2103
Mcad (GeneID 38864),DRSC09871,1.03e5,66578,,4177,2572
CG18649 (GeneID 39636),DRSC10334,1.06e5,,,6121,2496

As entered above:
CG8204 (GeneID 36728) [DRSC07106], firefly Hh reporter signal, replicate 1 → 1.25e5
For “firefly Hh reporter signal, replicate 2”, PGRP-LB (GeneID 41379) [DRSC14926] has 1.18e5
Entry of Hsp60A (GeneID 32045) [DRSC20254] in “firefly Hh reporter signal, replicate 1”: 1.24e5
Value of rad (retired record) (GeneID 32251) [DRSC18966] under “Renilla reference signal, replicate 1”: 19737
For “firefly Hh reporter signal, replicate 1”, CG31819 (GeneID 260658) [DRSC01532] is entered as 1.04e5
